# Test results: paper doi:10.64898/2025.12.08.693079
# Protein sequences, listed by entry. Tags and fused reporters are not part of them. Lines headed by an entry give the natural chain unless they say otherwise; changes in a name come on top.
# UniProt P29311: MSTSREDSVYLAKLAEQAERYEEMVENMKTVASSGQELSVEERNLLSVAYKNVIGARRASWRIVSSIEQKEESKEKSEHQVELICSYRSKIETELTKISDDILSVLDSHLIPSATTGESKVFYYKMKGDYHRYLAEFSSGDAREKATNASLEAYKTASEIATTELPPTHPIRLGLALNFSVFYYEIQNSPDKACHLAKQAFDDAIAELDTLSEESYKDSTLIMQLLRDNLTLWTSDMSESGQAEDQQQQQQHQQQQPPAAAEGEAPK
# UniProt P43583: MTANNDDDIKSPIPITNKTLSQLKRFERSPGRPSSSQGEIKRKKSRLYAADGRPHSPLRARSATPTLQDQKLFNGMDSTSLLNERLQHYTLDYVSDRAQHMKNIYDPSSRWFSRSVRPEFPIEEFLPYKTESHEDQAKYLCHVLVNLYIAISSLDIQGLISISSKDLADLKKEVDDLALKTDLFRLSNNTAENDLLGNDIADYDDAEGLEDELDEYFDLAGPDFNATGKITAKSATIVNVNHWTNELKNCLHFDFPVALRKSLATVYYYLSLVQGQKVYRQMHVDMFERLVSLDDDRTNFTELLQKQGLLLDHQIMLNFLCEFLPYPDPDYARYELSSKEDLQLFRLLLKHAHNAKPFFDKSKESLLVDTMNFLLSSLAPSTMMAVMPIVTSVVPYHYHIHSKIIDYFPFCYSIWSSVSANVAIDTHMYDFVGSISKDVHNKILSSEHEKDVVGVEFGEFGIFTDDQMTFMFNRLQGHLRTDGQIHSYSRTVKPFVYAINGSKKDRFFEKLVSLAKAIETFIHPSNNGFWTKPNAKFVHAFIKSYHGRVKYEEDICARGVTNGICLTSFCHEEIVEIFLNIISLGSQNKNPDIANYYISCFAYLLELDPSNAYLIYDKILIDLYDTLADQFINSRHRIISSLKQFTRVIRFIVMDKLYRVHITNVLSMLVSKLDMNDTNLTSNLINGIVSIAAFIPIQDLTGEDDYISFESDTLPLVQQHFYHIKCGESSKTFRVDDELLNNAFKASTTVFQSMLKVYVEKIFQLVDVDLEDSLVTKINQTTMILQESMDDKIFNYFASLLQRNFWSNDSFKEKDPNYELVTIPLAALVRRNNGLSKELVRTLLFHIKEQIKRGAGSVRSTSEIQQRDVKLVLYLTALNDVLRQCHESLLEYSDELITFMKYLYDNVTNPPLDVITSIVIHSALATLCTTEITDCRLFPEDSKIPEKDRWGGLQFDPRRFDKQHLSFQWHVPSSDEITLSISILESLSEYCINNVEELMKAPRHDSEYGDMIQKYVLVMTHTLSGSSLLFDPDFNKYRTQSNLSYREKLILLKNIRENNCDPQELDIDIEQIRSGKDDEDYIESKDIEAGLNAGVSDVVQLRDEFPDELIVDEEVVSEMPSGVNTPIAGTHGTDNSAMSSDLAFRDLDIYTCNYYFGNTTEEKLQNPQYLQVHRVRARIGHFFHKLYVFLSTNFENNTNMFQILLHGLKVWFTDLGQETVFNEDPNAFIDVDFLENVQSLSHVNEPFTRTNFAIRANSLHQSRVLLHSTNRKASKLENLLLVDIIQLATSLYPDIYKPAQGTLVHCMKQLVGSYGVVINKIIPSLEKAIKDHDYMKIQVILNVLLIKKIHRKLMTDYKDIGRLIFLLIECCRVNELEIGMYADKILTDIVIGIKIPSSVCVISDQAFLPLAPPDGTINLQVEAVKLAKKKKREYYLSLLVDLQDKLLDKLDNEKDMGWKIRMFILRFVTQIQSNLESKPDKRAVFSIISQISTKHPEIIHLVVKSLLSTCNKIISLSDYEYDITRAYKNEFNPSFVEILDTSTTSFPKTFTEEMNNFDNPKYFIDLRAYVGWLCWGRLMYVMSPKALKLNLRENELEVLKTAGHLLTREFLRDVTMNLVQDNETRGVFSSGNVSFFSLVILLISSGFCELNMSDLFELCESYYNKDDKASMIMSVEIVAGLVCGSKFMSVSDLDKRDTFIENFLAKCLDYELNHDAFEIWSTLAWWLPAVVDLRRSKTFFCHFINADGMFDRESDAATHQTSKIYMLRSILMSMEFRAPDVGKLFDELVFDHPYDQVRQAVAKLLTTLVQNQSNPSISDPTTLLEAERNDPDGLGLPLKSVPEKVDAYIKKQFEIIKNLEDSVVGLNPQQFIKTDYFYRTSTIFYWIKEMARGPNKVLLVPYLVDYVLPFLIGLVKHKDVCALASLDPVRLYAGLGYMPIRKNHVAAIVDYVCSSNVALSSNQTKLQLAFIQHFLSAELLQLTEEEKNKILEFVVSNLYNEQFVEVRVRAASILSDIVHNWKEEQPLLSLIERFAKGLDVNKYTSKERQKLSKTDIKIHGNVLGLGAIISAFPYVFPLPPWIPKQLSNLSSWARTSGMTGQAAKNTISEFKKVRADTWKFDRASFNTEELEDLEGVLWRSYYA
# No constants are given. Whether binding was seen depends on the method and setting. For some assays here: In cells and extracts the contact can be indirect. Some entries that bind do so weakly or less than the wild type.
# How the values were obtained:
# [1] = biological target: T1, α5 (S. cerevisiae (endogenous in SK1)) (UniProt P32379); assay: cryo-EM structure
# T1 sequence: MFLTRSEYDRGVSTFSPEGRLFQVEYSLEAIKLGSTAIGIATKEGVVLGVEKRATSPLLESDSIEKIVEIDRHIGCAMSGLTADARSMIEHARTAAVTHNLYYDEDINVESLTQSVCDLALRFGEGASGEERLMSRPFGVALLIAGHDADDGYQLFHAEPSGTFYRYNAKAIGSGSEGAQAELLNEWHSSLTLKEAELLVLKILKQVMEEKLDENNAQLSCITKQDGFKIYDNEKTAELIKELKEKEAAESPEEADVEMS
# [2] = biological target: Bmh1 (S. cerevisiae (endogenous in SK1)) (UniProt P29311); assay: cryo-EM structure
# [3] = biological target: 3x-Flag-tagged Blm10 (S. cerevisiae) (UniProt P43583); assay: cryo-EM structure
# [4] = biological target: 3FLAG-Blm10 L1049D, L1052D (S. cerevisiae) (UniProt P43583); assay: co-IP
# [5] = biological target: 3x-Flag-tagged Blm10 (S. cerevisiae) (UniProt P43583); assay: co-IP
substance,measurement,setting,value
3x-Flag-tagged Blm10 (from UniProt P43583 1-2143),binding,[1],binds
Bmh1 (from UniProt P29311 1-267),binding,[2],binds
same,binding,[3],binds
Bmh1-3HA (from UniProt P29311 1-267),binding,[4],binds
same,binding,[5],binds
